Reference: paper PMC5725425
Results are given in words; binding and its absence hold for the method and conditions named. For part of these data: Binding can be weak; no strength is given. For part of these data: Where a sequence is shown, tags or fusion partners need not be part of it.

Assays:
[1] = biological target: T1, Xyr1 extended middle homology region MHR1 (aa 314~772), two-hybrid bait in pGBKT7 (Trichoderma reesei) (UniProt G0RLE8); assay: two-hybrid; pairwise test: MAT1-2-1 with different regions of Xyr1 as bait (pGBKT7) in Y2H Gold; serial dilutions spotted on DDO and on QDO with AbA, 30 °C, 3 days
T1 sequence: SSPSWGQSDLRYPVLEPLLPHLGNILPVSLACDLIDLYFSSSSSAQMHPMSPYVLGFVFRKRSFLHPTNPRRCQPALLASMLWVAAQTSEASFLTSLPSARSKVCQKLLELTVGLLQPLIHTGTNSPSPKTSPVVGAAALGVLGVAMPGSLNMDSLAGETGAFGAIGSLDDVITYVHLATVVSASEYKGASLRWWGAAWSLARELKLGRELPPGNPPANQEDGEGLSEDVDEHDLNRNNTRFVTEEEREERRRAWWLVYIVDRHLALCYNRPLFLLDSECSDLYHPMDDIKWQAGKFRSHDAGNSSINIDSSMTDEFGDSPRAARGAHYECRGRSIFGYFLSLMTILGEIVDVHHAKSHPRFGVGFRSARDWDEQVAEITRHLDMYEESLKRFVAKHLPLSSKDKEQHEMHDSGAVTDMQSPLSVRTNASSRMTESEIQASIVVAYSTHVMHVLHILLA

[2] = biological target: T2, Xyr1 middle homology region MHR2 (aa 314~632), two-hybrid bait in pGBKT7 (Trichoderma reesei) (UniProt G0RLE8); assay: as above
T2 sequence: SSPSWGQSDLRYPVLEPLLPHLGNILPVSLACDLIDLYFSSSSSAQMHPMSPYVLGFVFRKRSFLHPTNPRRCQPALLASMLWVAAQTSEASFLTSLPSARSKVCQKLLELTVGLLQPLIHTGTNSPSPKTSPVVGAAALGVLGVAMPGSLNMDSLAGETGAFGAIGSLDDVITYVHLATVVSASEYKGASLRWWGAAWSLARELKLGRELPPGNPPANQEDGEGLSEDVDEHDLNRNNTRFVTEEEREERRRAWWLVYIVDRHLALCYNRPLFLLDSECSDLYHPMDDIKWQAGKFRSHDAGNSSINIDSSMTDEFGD

[3] = biological target: T3, GST-Xyr1 MHR2 (Trichoderma reesei) (UniProt G0RLE8); assay: pull-down; GST pull-down: purified 6 x His MAT1-2-1 incubated with glutathione sepharose bead-coupled GST, GST-Xyr1 AD or GST-Xyr1 MHR2, room temperature, half an hour; washed three times with PBST (0.5% Triton X-100, pH 7.4); Western blot with anti-His antibody; both purified
T3 sequence: T2 sequence

| Substance | binding [1] | binding [2] | binding [3] |
| --- | --- | --- | --- |
| mating type locus protein MAT1-2-1 (two-hybrid prey from the T. reesei cDNA library) (Trichoderma reesei) | no binding | binds | – |
| recombinant 6 x His-MAT1-2-1 (Trichoderma reesei) | – | – | binds |
